Assay results published in patent US8613933B2, “Brachyury polypeptides and methods for use” (The United States of America, as represented by the …, priority 2007, dated 2013).
Part of at least one peptide drawing is inferred or uncertain, most often the ends. Peptide text beside a SMILES is read from it.

Key:
Type in all cases: cell-based, human
[1] = tested on: Brachyury positive tumors; assay: Cytotoxic assays of Tp-2 cells, summary over tumor lines; conditions: cells derived from healthy individuals and cancer patients
CD8+ T cells = assay: IFN-γ ELISA of peptide-induced CD8+ T cells stimulated with peptide-pulsed autologous DCs; conditions: healthy donor, DCs pulsed with 25 μM peptide, three IVS, 24 hours stimulation
Excerpt: To generate Brachyury-specific cytotoxic T cells (CTLs), peptide-pulsed irradiated (30 Gy) DCs were used as antigen presenting cells (APCs) with autologous, non-adherent cells used as effector cells at an effector-to-APC ratio of 10:1. Cultures were maintained for three initial days in medium containing 10% human AB serum, and four additional days in the same medium supplemented with 20 U/ml of recombinant human IL-2. After a seven-day culture period, designated as an in vitro stimulation (IVS) cycle, cells were re-stimulated as described above.
After three IVS cycles, CD8+ T cells that were negatively isolated by using a CD8+ isolation kit (Miltenyi Biotec, Auburn, Calif.) were stimulated for 24 hours in the presence of peptide-pulsed autologous DCs. Culture supernatants were analyzed for the presence of IFN-γ by using an enzyme linked immunosorbant assay (ELISA) kit (Biosource International Inc., Camarillo, Calif.). Results were expressed in pg/ml.
Irradiated DCs pulsed with 25 μM of each peptide were used to stimulate autologous T cells from a healthy donor's PBMCs. […] Cytotoxic lysis of normal B lymphocytes was also analyzed since low expression of Brachyury was detectable in CD19+ cells isolated from various healthy donors.

SW480 = assay: Cytotoxic assay of T-p2 CTLs against tumor targets; conditions: patient 2, after five IVS
SW1463 = assay: Cytotoxic assay (111In 16-hour release) of T-p2 CTLs against tumor targets; conditions: CTLs from normal donor; HLA-A0201+/T antigen−
AsPC-1 = assay: as above; conditions: CTLs from normal donor; HLA-A0201−
NCI-H460 = assay: as above; conditions: CTLs from normal donor; HLA-A0201 negative, Brachyury positive
SW620 = assay: Cytotoxic assay of T-p2 CTLs against tumor targets; conditions: patient 2, after five IVS
LNCAP cells = assay: Cytotoxic assay of T-p2 CTLs against tumor targets; conditions: patient 1, after five IVS; HLA-A02 restricted
H441 tumor cells = assay: Cytotoxic assay (111In 16-hour release) of T-p2 CTLs against tumor targets
SW403 cells = assay: Cytotoxic assay of T-p2 CTLs against tumor targets; conditions: patient 2, after five IVS; HLA-A2+, lower Brachyury mRNA
T cells from PBMC = assay: In vitro expansion of Brachyury-specific CTLs from PBMC with peptide-pulsed DCs

CC(C)C[C@H](NC(=O)[C@@H](NC(=O)[C@H](CO)NC(=O)[C@@H](NC(=O)CNC(=O)[C@@H]1CCCN1C(=O)[C@H](CC(C)C)NC(=O)[C@H](CC(C)C)NC(=O)[C@@H](N)Cc1c[nH]c2ccccc12)[C@@H](C)O)[C@@H](C)O)C(=O)O [T-p2, WLLPGTSTL] (H-WLLPGTSTL-OH; N-terminus and C-terminus assumed)
Brachyury positive tumors lysed by Tp-2 cells [1]: 4/5
Induction of antigen-specific CTLs releasing IFN-γ upon stimulation with the specific peptide (CD8+ T cells): induced antigen-specific CTLs able to release IFN-γ
Lysis of SW480 by patient-derived T-p2 cells (SW480): able to lyse
Cytolytic activity of T-p2-specific CTLs against SW1463 (SW1463): no lysis was observed
Cytolytic activity of T-p2-specific CTLs against AsPC-1 (AsPC-1): not killed
Cytolytic activity of T-p2-specific CTLs against NCI-H460 (NCI-H460): not killed
Lysis of SW620 by patient-derived T-p2 cells (SW620): able to lyse
Lysis of LNCAP by patient-derived T-p2 CTLs (LNCAP cells): able to lyse LNCAP cells
T-p2 CTL-mediated killing of H441 in presence of anti-MHC antibodies (H441 tumor cells; 25 μg/ml anti-HLA-class I or class II MAb, E:T 20:1): blocked by antibodies directed against the MHC-class I molecules but not the MHC-class II molecules
Lysis of H441 by patient-derived T-p2 CTLs (H441 tumor cells; CTL lines of patient 1 and patient 2 after three IVS): able to lyse H441 tumor cells
Cytolytic activity of T-p2-specific CTLs against H441 (H441 tumor cells; CTLs from normal donor, H441 HLA-A0201+/T antigen+): highly efficient at killing H441 tumor cells
Lysis of H441 by patient-derived T-p2 cells (H441 tumor cells; patient 2, after five IVS): able to lyse
Lysis of SW403 by patient-derived T-p2 cells (SW403 cells): only minimal
Healthy donors from whom peptide-specific CTLs were induced (T cells from PBMC; PBMC of healthy donors): two out of five
Generation of peptide-specific CTLs from PBMCs of cancer patients (T cells from PBMC; colorectal cancer patient and ovarian cancer patient, three IVS cycles): successfully carried out
